According to publication PMC5388395:
These are yes or no findings as the source states them, for the method shown. Binding seen in cells or lysates may run through a third protein. Some entries that bind do so weakly or less than the wild type. Sequences can lack the tags named with a protein.

Legend:
Test in all cases: co-IP; extracts of cells expressing a Tap-tagged SAGA subunit and HA-tagged Not5 on IgG sepharose, TEV elution, western blot with CBP or HA antibodies; untagged cells as control
[1] = biological target: T1, Ada1-TAP (S. cerevisiae) (UniProt Q12060)
T1 sequence: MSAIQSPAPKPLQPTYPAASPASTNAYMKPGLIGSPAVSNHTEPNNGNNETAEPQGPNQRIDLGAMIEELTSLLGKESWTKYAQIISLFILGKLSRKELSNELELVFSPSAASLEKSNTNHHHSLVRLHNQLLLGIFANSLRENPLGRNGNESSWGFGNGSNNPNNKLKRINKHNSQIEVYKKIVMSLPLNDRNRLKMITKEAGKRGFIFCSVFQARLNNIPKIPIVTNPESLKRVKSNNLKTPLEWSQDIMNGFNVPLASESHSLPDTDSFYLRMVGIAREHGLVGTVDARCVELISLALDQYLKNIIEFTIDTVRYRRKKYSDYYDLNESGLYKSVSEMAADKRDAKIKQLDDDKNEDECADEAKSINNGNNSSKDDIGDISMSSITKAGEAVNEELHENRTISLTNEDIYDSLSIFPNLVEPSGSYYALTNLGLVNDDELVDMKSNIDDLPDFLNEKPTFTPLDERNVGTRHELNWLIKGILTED

[2] = biological target: T2, Spt20-TAP (S. cerevisiae) (UniProt P50875)
T2 sequence: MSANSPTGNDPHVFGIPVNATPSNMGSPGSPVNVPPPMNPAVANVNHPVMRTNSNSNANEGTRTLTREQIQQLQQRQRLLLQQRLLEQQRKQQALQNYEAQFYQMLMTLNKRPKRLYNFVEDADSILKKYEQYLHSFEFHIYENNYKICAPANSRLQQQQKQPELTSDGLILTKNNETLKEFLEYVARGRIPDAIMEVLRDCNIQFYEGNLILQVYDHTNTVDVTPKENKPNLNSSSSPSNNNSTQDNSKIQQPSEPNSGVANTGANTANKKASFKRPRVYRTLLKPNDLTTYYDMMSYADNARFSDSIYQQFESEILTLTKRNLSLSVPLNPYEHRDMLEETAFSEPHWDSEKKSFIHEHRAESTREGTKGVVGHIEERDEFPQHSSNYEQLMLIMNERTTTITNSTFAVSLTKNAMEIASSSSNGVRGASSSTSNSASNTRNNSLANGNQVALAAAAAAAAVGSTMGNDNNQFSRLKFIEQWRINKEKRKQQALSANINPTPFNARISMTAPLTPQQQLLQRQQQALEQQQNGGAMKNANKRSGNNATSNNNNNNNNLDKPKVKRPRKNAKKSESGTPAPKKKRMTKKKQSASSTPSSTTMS

[3] = biological target: T3, Spt8-TAP (S. cerevisiae) (UniProt P38915)
T3 sequence: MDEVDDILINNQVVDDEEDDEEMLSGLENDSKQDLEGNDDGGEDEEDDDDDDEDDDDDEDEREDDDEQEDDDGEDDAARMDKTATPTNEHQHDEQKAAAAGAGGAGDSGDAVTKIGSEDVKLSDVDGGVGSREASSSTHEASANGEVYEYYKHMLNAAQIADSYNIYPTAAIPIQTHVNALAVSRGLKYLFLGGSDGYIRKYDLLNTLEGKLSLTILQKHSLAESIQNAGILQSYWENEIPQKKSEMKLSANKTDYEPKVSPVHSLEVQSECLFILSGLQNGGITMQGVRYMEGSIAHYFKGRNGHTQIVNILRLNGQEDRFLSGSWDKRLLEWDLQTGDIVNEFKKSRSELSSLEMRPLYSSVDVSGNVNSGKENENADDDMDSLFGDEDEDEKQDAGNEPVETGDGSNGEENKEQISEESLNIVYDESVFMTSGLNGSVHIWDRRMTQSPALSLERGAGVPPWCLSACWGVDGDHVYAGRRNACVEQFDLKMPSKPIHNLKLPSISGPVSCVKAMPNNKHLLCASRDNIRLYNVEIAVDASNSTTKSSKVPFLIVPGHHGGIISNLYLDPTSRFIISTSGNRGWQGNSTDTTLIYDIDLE

[4] = biological target: T4, Ada2-TAP (S. cerevisiae) (UniProt Q02336)
T4 sequence: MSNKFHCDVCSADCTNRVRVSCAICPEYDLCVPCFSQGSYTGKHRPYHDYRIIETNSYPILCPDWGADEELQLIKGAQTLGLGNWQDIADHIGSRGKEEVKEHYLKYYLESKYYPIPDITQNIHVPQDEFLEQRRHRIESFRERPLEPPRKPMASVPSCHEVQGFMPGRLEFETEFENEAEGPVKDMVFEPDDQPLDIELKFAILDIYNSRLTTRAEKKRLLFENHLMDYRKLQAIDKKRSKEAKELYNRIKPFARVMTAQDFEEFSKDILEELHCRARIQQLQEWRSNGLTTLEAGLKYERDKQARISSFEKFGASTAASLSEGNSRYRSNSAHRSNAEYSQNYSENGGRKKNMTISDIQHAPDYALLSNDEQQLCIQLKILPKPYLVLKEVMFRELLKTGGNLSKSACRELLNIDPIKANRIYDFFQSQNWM

- binding [1]: no binding
- binding [2]: binds
- binding [3]: no binding
- binding [4]: binds
B1: Not5-HA (protein, UniProt Q12514 1-560)
chain: MSQRKLQQDIDKLLKKVKEGIEDFDDIYEKFQSTDPSNSSHREKLESDLKREIKKLQKHRDQIKTWLSKEDVKDKQSVLMTNRRLIENGMERFKSVEKLMKTKQFSKEALTNPDIIKDPKELKKRDQVLFIHDCLDELQKQLEQYEAQENEEQTERHEFHIANLENILKKLQNNEMDPEPVEEFQDDIKYYVENNDDPDFIEYDTIYEDMGCEIQPSSSNNEAPKEGNNQTSLSSIRSSKKQERSPKKKAPQRDVSISDRATTPIAPGVESASQSISSTPTPVSTDTPLHTVKDDSIKFDNSTLGTPTTHVSMKKKESENDSEQQLNFPPDRTDEIRKTIQHDVETNAAFQNPLFNDELKYWLDSKRYLMQPLQEMSPKMVSQLESSLLNCPDSLDADSPCLYTKPLSLPHPTSIFFPNEPIRFVYPYDVPLNLTNNENDTDNKFGKDSKAKSKKDDDIYSRTSLARIFMKFDLDTLFFIFYHYQGSYEQFLAARELFKNRNWLFNKVDRCWYYKEIEKLPPGMGKSEEESWRYFDYKKSWLARRCGNDFVYNEEDFEKL
